Measurements taken from article PMC10937794.
Results are given in words; binding and its absence hold for the method and conditions named. Binding seen in cells or lysates may run through a third protein. A yes stands for co-enrichment or nearness to the bait. Other partners may have been found.

Chains of the proteins cited; added tags and fusions are not shown.
UniProt Q9H6I2: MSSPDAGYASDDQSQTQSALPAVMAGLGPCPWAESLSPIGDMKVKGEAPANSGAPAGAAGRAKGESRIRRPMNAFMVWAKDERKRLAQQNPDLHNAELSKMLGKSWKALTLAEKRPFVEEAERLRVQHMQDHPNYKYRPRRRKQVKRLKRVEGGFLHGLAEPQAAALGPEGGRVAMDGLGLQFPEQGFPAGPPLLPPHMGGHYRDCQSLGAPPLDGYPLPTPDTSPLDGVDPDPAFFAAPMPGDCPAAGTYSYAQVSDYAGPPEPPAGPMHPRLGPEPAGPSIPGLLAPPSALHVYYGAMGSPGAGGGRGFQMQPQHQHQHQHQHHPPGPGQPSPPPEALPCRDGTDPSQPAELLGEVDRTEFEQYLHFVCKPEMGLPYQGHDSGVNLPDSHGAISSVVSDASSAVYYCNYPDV
UniProt Q9R0P9: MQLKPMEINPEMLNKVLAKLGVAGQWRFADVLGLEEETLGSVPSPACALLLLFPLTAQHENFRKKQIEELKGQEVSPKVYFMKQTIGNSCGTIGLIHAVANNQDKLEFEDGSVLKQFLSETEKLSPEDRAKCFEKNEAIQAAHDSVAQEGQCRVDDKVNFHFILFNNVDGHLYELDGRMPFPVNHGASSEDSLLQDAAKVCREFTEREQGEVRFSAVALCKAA

Biological target: Flag-Sox17 expressed in vascular endothelial cells (UniProt Q9H6I2)
Assay: affinity purification with mass spectrometry; Flag-Sox17 expressed in vascular endothelial cells; whole protein lysate on anti-Flag magnetic beads, eluted with 3 x Flag peptide, SDS-PAGE, silver staining and MS

Substance: Ubiquitin C-terminal hydrolase L1 (UCHL1), endogenous in endothelial cells (from UniProt Q9R0P9 1-223) (enzyme)
- binding: binds
